In the supplement of paper PMC10849652:
Some of the results follow.

The chains behind the UniProt entries cited, without tags or fusion partners. Where a name states a change or a piece, a line headed by the entry shows the natural chain unless it says otherwise.
UniProt Q12887: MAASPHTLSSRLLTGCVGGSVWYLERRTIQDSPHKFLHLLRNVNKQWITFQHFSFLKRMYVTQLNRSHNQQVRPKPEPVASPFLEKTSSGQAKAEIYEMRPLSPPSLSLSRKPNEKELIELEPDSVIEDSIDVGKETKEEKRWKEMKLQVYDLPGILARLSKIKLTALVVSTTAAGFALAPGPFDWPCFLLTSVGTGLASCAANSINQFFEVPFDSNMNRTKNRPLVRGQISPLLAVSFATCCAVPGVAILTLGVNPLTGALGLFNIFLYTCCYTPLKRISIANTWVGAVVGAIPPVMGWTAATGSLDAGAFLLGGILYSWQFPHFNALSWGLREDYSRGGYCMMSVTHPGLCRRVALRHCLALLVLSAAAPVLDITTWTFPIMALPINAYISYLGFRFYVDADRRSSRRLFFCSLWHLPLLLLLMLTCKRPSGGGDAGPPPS
UniProt Q8IUI8: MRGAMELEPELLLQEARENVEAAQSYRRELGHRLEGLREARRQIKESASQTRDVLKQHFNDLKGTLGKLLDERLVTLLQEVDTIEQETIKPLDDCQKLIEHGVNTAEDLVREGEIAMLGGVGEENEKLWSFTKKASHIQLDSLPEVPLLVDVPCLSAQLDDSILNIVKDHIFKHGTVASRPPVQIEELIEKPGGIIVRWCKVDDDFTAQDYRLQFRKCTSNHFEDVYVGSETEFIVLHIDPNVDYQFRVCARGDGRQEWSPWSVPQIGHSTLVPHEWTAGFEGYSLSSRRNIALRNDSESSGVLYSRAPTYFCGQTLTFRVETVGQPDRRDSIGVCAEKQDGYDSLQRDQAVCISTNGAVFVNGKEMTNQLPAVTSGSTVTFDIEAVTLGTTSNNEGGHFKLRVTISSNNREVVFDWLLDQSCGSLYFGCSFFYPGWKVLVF
UniProt P02461, whole entry, looked up: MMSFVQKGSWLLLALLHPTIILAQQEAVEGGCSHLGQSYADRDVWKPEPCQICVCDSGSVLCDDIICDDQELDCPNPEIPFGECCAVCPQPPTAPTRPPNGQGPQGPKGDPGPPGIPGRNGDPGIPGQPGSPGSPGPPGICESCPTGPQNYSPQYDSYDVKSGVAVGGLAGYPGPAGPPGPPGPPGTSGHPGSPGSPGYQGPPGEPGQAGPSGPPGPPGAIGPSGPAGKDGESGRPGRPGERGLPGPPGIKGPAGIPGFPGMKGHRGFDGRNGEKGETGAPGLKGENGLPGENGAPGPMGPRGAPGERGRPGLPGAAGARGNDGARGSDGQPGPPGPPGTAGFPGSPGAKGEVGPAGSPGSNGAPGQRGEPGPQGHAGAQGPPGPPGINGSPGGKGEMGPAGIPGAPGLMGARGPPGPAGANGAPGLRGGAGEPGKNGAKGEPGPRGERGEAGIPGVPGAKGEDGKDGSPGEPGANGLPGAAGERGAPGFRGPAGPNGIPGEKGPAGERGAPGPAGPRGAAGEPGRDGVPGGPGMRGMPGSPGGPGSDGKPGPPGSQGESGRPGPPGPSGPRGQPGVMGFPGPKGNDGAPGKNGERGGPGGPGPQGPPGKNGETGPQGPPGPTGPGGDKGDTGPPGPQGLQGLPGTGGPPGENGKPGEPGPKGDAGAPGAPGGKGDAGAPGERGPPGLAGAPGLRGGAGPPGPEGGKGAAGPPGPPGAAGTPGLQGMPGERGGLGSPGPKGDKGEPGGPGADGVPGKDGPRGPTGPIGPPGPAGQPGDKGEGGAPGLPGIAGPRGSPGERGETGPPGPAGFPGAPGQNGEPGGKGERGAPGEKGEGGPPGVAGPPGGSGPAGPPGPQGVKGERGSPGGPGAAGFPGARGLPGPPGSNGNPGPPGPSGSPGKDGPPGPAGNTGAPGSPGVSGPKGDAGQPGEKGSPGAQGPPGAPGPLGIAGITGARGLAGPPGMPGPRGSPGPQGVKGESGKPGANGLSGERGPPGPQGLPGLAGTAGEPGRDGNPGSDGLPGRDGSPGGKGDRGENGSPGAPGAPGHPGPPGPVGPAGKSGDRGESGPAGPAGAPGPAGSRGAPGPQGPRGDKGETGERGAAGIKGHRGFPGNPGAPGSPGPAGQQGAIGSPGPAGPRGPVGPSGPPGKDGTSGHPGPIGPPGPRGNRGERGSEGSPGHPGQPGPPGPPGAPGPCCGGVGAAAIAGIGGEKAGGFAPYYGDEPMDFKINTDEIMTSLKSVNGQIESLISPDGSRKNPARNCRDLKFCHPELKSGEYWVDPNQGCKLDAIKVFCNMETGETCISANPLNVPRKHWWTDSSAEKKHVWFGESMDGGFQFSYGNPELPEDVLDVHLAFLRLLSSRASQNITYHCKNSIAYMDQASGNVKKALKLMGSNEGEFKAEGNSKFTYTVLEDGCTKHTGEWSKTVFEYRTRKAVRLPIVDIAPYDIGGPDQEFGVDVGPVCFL
UniProt P10606, whole entry, looked up: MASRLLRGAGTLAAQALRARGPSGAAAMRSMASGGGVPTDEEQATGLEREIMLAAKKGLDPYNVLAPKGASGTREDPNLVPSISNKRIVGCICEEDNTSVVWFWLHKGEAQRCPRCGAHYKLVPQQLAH
UniProt Q8N684: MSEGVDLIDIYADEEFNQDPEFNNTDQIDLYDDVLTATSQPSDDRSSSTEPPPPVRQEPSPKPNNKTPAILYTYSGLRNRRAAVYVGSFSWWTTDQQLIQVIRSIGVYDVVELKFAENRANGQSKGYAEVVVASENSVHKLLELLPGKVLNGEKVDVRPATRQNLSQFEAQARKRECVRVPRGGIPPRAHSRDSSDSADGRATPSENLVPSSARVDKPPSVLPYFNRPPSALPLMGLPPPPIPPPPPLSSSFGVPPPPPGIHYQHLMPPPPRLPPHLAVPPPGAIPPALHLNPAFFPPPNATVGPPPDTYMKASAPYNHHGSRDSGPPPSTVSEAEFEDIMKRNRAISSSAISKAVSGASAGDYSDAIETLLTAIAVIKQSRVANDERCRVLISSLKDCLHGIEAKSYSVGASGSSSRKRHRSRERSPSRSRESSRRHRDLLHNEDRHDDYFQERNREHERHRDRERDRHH
UniProt P19784, whole entry, looked up: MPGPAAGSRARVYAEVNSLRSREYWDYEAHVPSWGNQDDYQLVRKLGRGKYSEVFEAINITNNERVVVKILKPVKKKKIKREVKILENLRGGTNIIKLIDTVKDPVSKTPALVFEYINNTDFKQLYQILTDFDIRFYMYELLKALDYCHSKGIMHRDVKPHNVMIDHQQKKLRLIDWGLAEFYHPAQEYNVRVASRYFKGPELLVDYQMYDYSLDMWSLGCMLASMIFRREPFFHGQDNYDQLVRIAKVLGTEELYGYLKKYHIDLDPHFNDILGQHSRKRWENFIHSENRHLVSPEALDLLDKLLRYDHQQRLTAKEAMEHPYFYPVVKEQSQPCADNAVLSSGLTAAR
UniProt P46108: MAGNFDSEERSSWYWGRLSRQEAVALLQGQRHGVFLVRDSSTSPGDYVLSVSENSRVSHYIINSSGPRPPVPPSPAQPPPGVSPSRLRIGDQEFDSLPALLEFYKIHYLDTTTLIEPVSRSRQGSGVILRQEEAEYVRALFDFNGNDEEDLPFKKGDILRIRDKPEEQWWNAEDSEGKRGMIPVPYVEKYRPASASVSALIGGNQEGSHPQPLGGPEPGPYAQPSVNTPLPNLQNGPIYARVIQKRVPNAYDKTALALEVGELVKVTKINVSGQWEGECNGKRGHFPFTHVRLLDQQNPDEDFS
UniProt Q9UJA2: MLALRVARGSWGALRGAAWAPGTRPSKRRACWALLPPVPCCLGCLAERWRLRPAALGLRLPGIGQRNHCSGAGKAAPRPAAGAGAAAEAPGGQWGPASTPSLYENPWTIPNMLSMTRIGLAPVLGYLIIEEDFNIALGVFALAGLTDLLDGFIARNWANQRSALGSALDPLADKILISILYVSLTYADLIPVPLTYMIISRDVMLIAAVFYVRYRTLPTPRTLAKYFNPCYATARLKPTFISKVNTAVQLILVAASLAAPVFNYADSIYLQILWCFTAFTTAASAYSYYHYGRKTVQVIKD
UniProt Q9UNS2: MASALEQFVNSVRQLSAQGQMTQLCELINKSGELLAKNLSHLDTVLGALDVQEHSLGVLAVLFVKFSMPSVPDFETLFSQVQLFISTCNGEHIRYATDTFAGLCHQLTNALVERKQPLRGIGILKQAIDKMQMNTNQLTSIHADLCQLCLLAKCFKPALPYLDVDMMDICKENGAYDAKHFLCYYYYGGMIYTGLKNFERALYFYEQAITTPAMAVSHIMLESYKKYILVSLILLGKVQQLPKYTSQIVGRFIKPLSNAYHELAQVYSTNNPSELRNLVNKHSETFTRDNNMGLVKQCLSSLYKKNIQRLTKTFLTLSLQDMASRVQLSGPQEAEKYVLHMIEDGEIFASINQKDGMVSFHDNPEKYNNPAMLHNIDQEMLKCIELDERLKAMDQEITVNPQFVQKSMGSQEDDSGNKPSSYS
UniProt Q9P2I0: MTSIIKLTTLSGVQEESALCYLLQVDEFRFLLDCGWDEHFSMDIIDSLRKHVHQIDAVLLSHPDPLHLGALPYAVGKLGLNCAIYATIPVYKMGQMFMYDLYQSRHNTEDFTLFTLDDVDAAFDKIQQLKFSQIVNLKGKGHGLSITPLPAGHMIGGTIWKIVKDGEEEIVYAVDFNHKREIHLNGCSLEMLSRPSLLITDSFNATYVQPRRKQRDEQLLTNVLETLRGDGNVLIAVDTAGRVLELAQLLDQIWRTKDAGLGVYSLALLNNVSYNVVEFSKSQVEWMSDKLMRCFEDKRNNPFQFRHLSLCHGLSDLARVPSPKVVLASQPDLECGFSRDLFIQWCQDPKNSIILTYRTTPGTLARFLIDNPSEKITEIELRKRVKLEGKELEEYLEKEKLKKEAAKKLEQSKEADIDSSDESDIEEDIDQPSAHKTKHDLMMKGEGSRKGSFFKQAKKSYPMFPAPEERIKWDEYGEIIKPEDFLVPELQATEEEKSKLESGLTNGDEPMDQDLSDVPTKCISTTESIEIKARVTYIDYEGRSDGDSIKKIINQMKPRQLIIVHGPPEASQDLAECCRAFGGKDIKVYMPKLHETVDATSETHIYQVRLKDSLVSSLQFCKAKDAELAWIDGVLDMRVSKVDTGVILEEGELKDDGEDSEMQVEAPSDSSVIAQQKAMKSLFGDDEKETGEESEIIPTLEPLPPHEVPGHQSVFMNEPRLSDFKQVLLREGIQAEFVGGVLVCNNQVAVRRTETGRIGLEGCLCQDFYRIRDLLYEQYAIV
UniProt Q5RI15: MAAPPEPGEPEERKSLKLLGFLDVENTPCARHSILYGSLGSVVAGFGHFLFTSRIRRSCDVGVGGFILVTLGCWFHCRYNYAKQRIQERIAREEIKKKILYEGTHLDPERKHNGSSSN
UniProt Q99627: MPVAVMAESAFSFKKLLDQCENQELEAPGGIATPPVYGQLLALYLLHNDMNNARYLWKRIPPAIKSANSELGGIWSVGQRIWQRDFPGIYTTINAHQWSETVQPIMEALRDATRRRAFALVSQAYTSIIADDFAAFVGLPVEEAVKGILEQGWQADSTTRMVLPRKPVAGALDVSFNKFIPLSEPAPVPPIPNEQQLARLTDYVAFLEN
UniProt P48729: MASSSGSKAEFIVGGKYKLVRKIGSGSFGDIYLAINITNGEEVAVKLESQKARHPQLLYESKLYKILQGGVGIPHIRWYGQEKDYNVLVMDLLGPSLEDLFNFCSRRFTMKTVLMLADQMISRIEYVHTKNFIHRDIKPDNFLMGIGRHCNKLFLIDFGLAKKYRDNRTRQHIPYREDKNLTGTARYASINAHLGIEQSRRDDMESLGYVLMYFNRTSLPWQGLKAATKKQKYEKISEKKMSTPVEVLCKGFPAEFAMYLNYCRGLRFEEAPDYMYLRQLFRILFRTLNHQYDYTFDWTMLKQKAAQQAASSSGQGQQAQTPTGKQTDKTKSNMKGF
UniProt P29373: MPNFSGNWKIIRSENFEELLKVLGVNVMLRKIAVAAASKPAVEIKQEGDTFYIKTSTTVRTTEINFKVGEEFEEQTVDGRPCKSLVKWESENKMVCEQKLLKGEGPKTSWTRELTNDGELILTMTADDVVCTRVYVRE
UniProt Q9UBG3: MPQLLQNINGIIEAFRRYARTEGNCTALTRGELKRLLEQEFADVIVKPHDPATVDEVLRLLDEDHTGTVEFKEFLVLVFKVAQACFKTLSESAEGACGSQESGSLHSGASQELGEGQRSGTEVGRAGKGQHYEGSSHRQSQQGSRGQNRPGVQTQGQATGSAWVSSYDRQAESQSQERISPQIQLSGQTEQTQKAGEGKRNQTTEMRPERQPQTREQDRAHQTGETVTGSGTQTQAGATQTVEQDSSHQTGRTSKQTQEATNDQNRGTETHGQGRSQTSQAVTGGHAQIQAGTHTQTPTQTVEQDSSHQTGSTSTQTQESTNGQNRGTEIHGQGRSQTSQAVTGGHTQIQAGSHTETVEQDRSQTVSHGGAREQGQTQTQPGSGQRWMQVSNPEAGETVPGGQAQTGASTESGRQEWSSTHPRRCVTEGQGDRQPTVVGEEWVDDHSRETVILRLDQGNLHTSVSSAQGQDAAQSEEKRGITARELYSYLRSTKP
UniProt Q7Z4G1, whole entry, looked up: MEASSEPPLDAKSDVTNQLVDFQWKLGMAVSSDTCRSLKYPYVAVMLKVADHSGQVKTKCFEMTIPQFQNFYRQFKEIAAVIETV

Columns and labels:
Assay in all cases: log2 fold change, soluble protein after heating vs DMSO (PISA); higher = thermal stabilisation; K562 cells, 10 uM, 30 min; active = over 0.2 and 3.5 SD of the protein, either way, in both replicates (recomputed)
saracatinib = compound: CN1CCN(CCOc2cc(OC3CCOCC3)c3c(Nc4c(Cl)ccc5c4OCO5)ncnc3c2)CC1 [saracatinib]
Method in brief: (§1)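 K562 cells at 2×10^6 cells/mL were treated with 10 μM compound for 30 min. Aliquots were heated for 3 min across 48°C-58°C, pooled, and extracted in PBS with 0.5% NP-40 at 4°C; soluble protein was the supernatant after 21,000xg for 90 min. Soluble protein was quantified by TMTpro 16plex LC-MS/MS with channel sums equalised, and reported as log2 fold change in thermal stability against DMSO controls, with values from duplicates.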

alvocidib = compound: CN1CC[C@H](c2c(O)cc(O)c3c(=O)cc(-c4ccccc4Cl)oc23)[C@H](O)C1 [alvocidib]
Method in brief: as §1

Tubastatin A = compound: CN1CCc2c(c3ccccc3n2Cc2ccc(C(=O)NO)cc2)C1 [Tubastatin A]
Method in brief: as §1

[1] = compound: CNC(=O)C1=CC=CC=C1NC2=NC(=NC=C2Cl)NC3=C(C=C(C=C3)N4CCOCC4)OC
Method in brief: as §1

defactinib = compound: CNC(=O)c1ccc(Nc2ncc(C(F)(F)F)c(NCc3nccnc3N(C)S(C)(=O)=O)n2)cc1 [defactinib]
Method in brief: as §1

rucaparib = compound: CNCc1ccc(-c2[nH]c3cc(F)cc4c3c2CCNC4=O)cc1 [rucaparib]
Method in brief: as §1

[2] = compound: CNc1nc(-c2ccc3c(N)n[nH]c3c2)cc(N2C[C@@H](C(=O)NC3CCCCC3)CC[C@H]2C)n1
Method in brief: as §1

encorafenib = compound: COC(=O)N[C@@H](C)CNc1nccc(-c2cn(C(C)C)nc2-c2cc(Cl)cc(NS(C)(=O)=O)c2F)n1 [encorafenib]
Method in brief: as §1

[3] = compound: COC(=O)[C@H](CCSC)NC(=O)C1=C(C=C(C=C1)NC[C@H](CS)N)C2=CC=CC=C2
Method in brief: as §1

[4] = compound: COC1=CC=C(C=C1)CN2C=CC3=C2C=C(C=C3)C(=O)NO
Method in brief: as §1

zotarolimus = compound: CO[C@H]1C[C@@H]2CC[C@@H](C)[C@@](O)(O2)C(=O)C(=O)N2CCCC[C@H]2C(=O)O[C@H]([C@H](C)C[C@@H]2CC[C@H](n3cnnn3)[C@H](OC)C2)CC(=O)[C@H](C)/C=C(\C)[C@@H](O)[C@@H](OC)C(=O)[C@H](C)C[C@H](C)/C=C/C=C/C=C/1C [zotarolimus]
Method in brief: as §1

idasanutlin = compound: COc1cc(C(=O)O)ccc1NC(=O)[C@@H]1N[C@@H](CC(C)(C)C)[C@](C#N)(c2ccc(Cl)cc2F)[C@H]1c1cccc(Cl)c1F [idasanutlin]
Method in brief: as §1

alisertib = compound: COc1cc(Nc2ncc3c(n2)-c2ccc(Cl)cc2C(c2c(F)cccc2OC)=NC3)ccc1C(=O)O [alisertib]
Method in brief: as §1

[5] = compound: COc1cc2nc(-c3cc(F)ccc3O)nc(N[C@@H]3CNC[C@H]3C(C)(C)O)c2cc1OC
Method in brief: as §1

gefitinib = compound: COc1cc2ncnc(Nc3ccc(F)c(Cl)c3)c2cc1OCCCN1CCOCC1 [gefitinib]
Method in brief: as §1

[6] = compound: COc1cccc2cc(-c3nc([C@H]4CC[C@H](C(=O)O)CC4)n4ncnc(N)c34)[nH]c12
Method in brief: as §1

lapatinib = compound: CS(=O)(=O)CCNCc1ccc(-c2ccc3ncnc(Nc4ccc(OCc5cccc(F)c5)c(Cl)c4)c3c2)o1 [lapatinib]
Method in brief: as §1

pictilisib = compound: CS(=O)(=O)N1CCN(Cc2cc3nc(-c4cccc5[nH]ncc45)nc(N4CCOCC4)c3s2)CC1 [pictilisib]
Method in brief: as §1

sotrastaurin = compound: CN1CCN(c2nc(C3=C(c4c[nH]c5ccccc45)C(=O)NC3=O)c3ccccc3n2)CC1 [sotrastaurin]
Method in brief: as §1

filanesib = compound: CON(C)C(=O)N1N=C(c2cc(F)ccc2F)S[C@@]1(CCCN)c1ccccc1 [filanesib]
Method in brief: as §1

Measured: log2 fold change

COX10 (UniProt Q12887)
inactive: saracatinib 0.068 | alvocidib 0.049 | Tubastatin A 0.051 | [1] -0.163 | defactinib -0.013 | rucaparib 0.011 | [2] -0.054 | encorafenib 0.003 | [3] -0.023 | [4] -0.027 | zotarolimus -0.239 | idasanutlin -0.102 | alisertib -0.157 | [5] -0.074 | gefitinib -0.148 | [6] 0.175 | lapatinib -0.095 | pictilisib -0.205

CRLF3 (UniProt Q8IUI8)
inactive: saracatinib -0.209 | sotrastaurin -0.124 | Tubastatin A 0.054 | [1] 0.051 | defactinib -0.076 | rucaparib 0.026 | [2] 0.036 | encorafenib 0.074 | [3] -0.013 | [4] -0.006 | filanesib -0.049 | zotarolimus 0.016 | idasanutlin 0.039 | alisertib 0.005 | [5] -0.05 | gefitinib 0.018 | [6] 0.014 | lapatinib 0.035 | pictilisib 0.051

COL3A1 (UniProt P02461)
inactive: saracatinib 0.129 | alvocidib -0.036 | Tubastatin A -0.144 | [1] 0.072 | defactinib 0.042 | [2] -0.065 | [3] 0.13 | [4] -0.072 | zotarolimus -0.083 | [5] -0.226 | lapatinib 0.109 | pictilisib 0.049

COX5B (UniProt P10606)
inactive: saracatinib -0.076 | sotrastaurin 0.113 | Tubastatin A 0.052 | [1] 0 | defactinib -0.046 | rucaparib -0.01 | [2] 0.024 | encorafenib -0.033 | [3] 0.006 | [4] 0.012 | filanesib 0.212 | zotarolimus 0.094 | idasanutlin 0.019 | alisertib -0.103 | [5] 0.004 | gefitinib 0.011 | [6] 0.015 | lapatinib -0.038 | pictilisib -0.04

CSNK2B (UniProt P67870)
inactive: saracatinib 0.074 | sotrastaurin 0.036 | Tubastatin A 0.021 | [1] 0.246 | defactinib -0.09 | rucaparib -0.116 | [2] -0.031 | encorafenib 0.024 | [3] 0.038 | [4] 0.113 | filanesib -0.006 | zotarolimus -0.002 | idasanutlin -0.026 | alisertib -0.013 | [5] -0.196 | gefitinib -0.013 | [6] 0.028 | lapatinib 0.04 | pictilisib 0.079

CPSF7 isoform 3 (UniProt Q8N684)
inactive: saracatinib 0.006 | sotrastaurin 0.026 | Tubastatin A 0.032 | [1] -0.071 | defactinib 0.014 | rucaparib 0.033 | [2] -0.014 | encorafenib -0.014 | [3] -0.044 | [4] 0.018 | filanesib 0.018 | zotarolimus 0.033 | idasanutlin -0.003 | alisertib -0.074 | [5] 0.065 | gefitinib 0.029 | [6] -0.016 | lapatinib 0.013 | pictilisib 0.12

CSNK2A2 (UniProt P19784)
inactive: saracatinib 0.029 | sotrastaurin 0.024 | Tubastatin A -0.042 | [1] 0.214 | defactinib -0.067 | rucaparib -0.123 | [2] -0.017 | encorafenib -0.039 | [3] -0.052 | [4] -0.042 | filanesib -0.019 | zotarolimus -0.003 | idasanutlin -0.094 | alisertib 0.001 | [5] -0.177 | gefitinib -0.031 | [6] 0.033 | lapatinib 0.02 | pictilisib 0.128

CRK (UniProt P46108)
active: saracatinib -0.768
inactive: sotrastaurin 0 | Tubastatin A 0.092 | [1] -0.003 | defactinib -0.056 | rucaparib -0.025 | [2] -0.006 | encorafenib 0.021 | [3] -0.024 | [4] 0.072 | filanesib 0.008 | zotarolimus 0.144 | idasanutlin 0.061 | alisertib -0.107 | [5] 0.011 | gefitinib -0.006 | [6] 0.025 | lapatinib 0.012 | pictilisib 0.043

CPT2 (UniProt P23786)
active: zotarolimus 0.798 | idasanutlin 0.806
inactive: saracatinib -0.089 | sotrastaurin -0.136 | Tubastatin A 0.032 | [1] 0.147 | defactinib -0.164 | rucaparib -0.096 | [2] 0.363 | encorafenib -0.074 | [3] -0.057 | [4] 0.114 | filanesib -0.207 | alisertib -0.067 | [5] -0.199 | gefitinib 0.343 | [6] -0.005 | lapatinib 0.058 | pictilisib 0.57

CRLS1 (UniProt Q9UJA2)
inactive: saracatinib 0.144 | sotrastaurin -0.282 | Tubastatin A -0.079 | [1] 0.043 | defactinib -0.088 | rucaparib -0.088 | [2] -0.052 | encorafenib 0.004 | [3] 0.067 | [4] 0.044 | filanesib -0.125 | zotarolimus 0.005 | alisertib -0.071 | [5] -0.229 | gefitinib 0.021 | [6] 0.075 | lapatinib 0.046 | pictilisib -0.029

COPS3 (UniProt Q9UNS2)
inactive: saracatinib -0.016 | sotrastaurin 0.02 | Tubastatin A -0.025 | [1] -0.021 | defactinib -0.023 | rucaparib -0.037 | [2] -0.013 | encorafenib -0.003 | [3] 0.033 | [4] 0.12 | filanesib -0.035 | zotarolimus -0.004 | idasanutlin -0.09 | alisertib -0.012 | [5] 0.008 | gefitinib -0.031 | [6] 0.052 | lapatinib -0.015 | pictilisib -0.063

CPSF2 (UniProt Q9P2I0)
inactive: saracatinib -0.015 | sotrastaurin -0.084 | Tubastatin A 0.065 | [1] 0.014 | defactinib -0.084 | rucaparib 0.062 | [2] 0.008 | encorafenib 0 | [3] 0.078 | [4] -0.033 | filanesib 0.013 | idasanutlin 0.022 | alisertib -0.116 | [5] 0.124 | gefitinib 0.053 | [6] 0.15 | lapatinib -0.024 | pictilisib 0

COX20 isoform 2 (UniProt Q5RI15)
inactive: saracatinib 0.005 | sotrastaurin 0.008 | Tubastatin A -0.062 | [1] -0.028 | defactinib -0.017 | rucaparib 0.044 | [2] -0.025 | encorafenib -0.108 | [3] 0.009 | [4] -0.029 | filanesib -0.011 | zotarolimus -0.029 | idasanutlin -0.039 | alisertib -0.025 | [5] 0.06 | gefitinib -0.01 | [6] 0.012 | lapatinib -0.014 | pictilisib -0.081

2 records drawn at random from those above, as already listed:
CRLS1 (UniProt Q9UJA2)
inactive: saracatinib 0.144 | sotrastaurin -0.282 | Tubastatin A -0.079 | [1] 0.043 | defactinib -0.088 | rucaparib -0.088 | [2] -0.052 | encorafenib 0.004 | [3] 0.067 | [4] 0.044 | filanesib -0.125 | zotarolimus 0.005 | alisertib -0.071 | [5] -0.229 | gefitinib 0.021 | [6] 0.075 | lapatinib 0.046 | pictilisib -0.029

CPT2 (UniProt P23786)
active: zotarolimus 0.798 | idasanutlin 0.806
inactive: saracatinib -0.089 | sotrastaurin -0.136 | Tubastatin A 0.032 | [1] 0.147 | defactinib -0.164 | rucaparib -0.096 | [2] 0.363 | encorafenib -0.074 | [3] -0.057 | [4] 0.114 | filanesib -0.207 | alisertib -0.067 | [5] -0.199 | gefitinib 0.343 | [6] -0.005 | lapatinib 0.058 | pictilisib 0.57

The list goes on:

CSNK1G1 (UniProt Q9HCP0)
inactive: saracatinib 0.026 | sotrastaurin -0.103 | [1] 0.15 | rucaparib 0.144 | [2] -0.086 | encorafenib 0.113 | filanesib -0.125 | alisertib -0.15 | gefitinib 0.213 | [6] -0.11

COPS8 (UniProt Q99627)
inactive: saracatinib -0.013 | sotrastaurin -0.052 | Tubastatin A -0.025 | [1] -0.039 | defactinib -0.03 | rucaparib -0.015 | [2] 0.018 | encorafenib 0.011 | [3] -0.021 | [4] 0.006 | filanesib 0.023 | zotarolimus 0.045 | idasanutlin -0.017 | alisertib 0.042 | [5] -0.078 | gefitinib -0.028 | [6] 0.117 | lapatinib -0.01 | pictilisib -0.014

CSNK1A1 isoform 3 (UniProt P48729)
inactive: [5] -0.006 | [6] 0.091 | lapatinib 0.129

CRABP2 (UniProt P29373)
inactive: saracatinib 0.029 | [2] -0.072 | alisertib 0.97 | [6] -0.217 | pictilisib -0.098

CRNN (UniProt Q9UBG3)
inactive: [1] -0.463 | alisertib 0.105 | [6] -0.12

COMMD3-BMI1 (UniProt R4GMX3)
inactive: sotrastaurin -0.024 | Tubastatin A -0.074 | filanesib -0.08 | zotarolimus -0.12 | idasanutlin 0.093 | gefitinib -0.029 | lapatinib -0.445 | pictilisib 0.135
active: [5] 0.519

COMMD6 isoform 2 (UniProt Q7Z4G1)
inactive: [1] -0.197 | defactinib 0.194 | rucaparib -0.106 | encorafenib -0.077 | [3] 0.008 | pictilisib -0.285
